Experimental data: PubChem BioAssay AID504764 (Drosophila RNAi Screening Center, 2011)
In all, the deposit lists about 22,000 reagents; below is an unselected part of those that have a named target and a result. In the full data, 403 (1.9%) are marked active. 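Unnormalised raw counts per well; ratio z-scores behind the hit calls and whether each hit raises or lowers signal are not deposited.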 Not stated in the record: the amount of reagent.

Purpose: 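Knock-downs that raise or lower a Notch target reporter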 (primary screen)
System: Drosophila Kc167 cells
Reagents: long dsRNA against Drosophila genes
Time to read-out: about 5 days (4 days dsRNA, then 24 h after transfection)
Conditions: transfection of constitutively active membrane-tethered Notch lacking the extracellular domain, read 24 h later
Detection: 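Light from a Notch-responsive E(spl)m3 luciferase reporter under active Notch, with control-promoter and no-Notch reporter wells to normalise; raw counts from paired wells a and b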
Scale: induced reporter light, run 1, well a and induced reporter light, run 1, well b: higher = more light from the Notch target reporter with active Notch; control promoter light, run 1, well a and control promoter light, run 1, well b: higher = more light from the viral control promoter (cell number, transfection, viability); uninduced reporter light, run 1, well a: higher = more light from the Notch target reporter without active Notch
Active means: 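Hit if the duplicate-averaged log2 ratio of induced to control-promoter light gives a plate-wise z beyond ±2, or induced to uninduced beyond ±1.8; weak-control or discordant-duplicate wells dropped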
Calls: active = modifier hit (raised or lowered Notch signal); inactive = not a hit

{"target": "CG17187", "PubChem SID": "SID104194973", "induced reporter light, run 1, well a": 69795, "induced reporter light, run 1, well b": 58925, "control promoter light, run 1, well a": 75580, "control promoter light, run 1, well b": 38630, "uninduced reporter light, run 1, well a": 4738, "Outcome": "inactive"}
{"target": "velo", "PubChem SID": "SID104188633", "induced reporter light, run 1, well a": 56675, "induced reporter light, run 1, well b": 58640, "control promoter light, run 1, well a": 52450, "control promoter light, run 1, well b": 70275, "uninduced reporter light, run 1, well a": 6532, "Outcome": "inactive"}
{"target": "velo", "PubChem SID": "SID104189490", "induced reporter light, run 1, well a": 1.17e5, "induced reporter light, run 1, well b": 1.13e5, "control promoter light, run 1, well a": 1.26e5, "control promoter light, run 1, well b": 68765, "uninduced reporter light, run 1, well a": 10375, "Outcome": "inactive"}
{"target": "akirin", "PubChem SID": "SID104190792", "induced reporter light, run 1, well a": 1.20e5, "induced reporter light, run 1, well b": 1.04e5, "control promoter light, run 1, well a": 94655, "control promoter light, run 1, well b": 55340, "uninduced reporter light, run 1, well a": 8715, "Outcome": "inactive"}
{"target": "defl", "PubChem SID": "SID104190092", "induced reporter light, run 1, well a": 1.23e5, "induced reporter light, run 1, well b": 1.43e5, "control promoter light, run 1, well a": 83375, "control promoter light, run 1, well b": 64265, "uninduced reporter light, run 1, well a": 23478, "Outcome": "active"}
{"target": "CG6984", "PubChem SID": "SID104186805", "induced reporter light, run 1, well a": 51935, "induced reporter light, run 1, well b": 86390, "control promoter light, run 1, well a": 1.42e5, "control promoter light, run 1, well b": 1.83e5, "uninduced reporter light, run 1, well a": 8442, "Outcome": "inactive"}
{"target": "CG11590", "PubChem SID": "SID104199203", "induced reporter light, run 1, well a": 1.02e5, "induced reporter light, run 1, well b": 81135, "control promoter light, run 1, well a": 1.02e5, "control promoter light, run 1, well b": 86350, "uninduced reporter light, run 1, well a": 12150, "Outcome": "inactive"}
{"target": "mas", "PubChem SID": "SID104188512", "induced reporter light, run 1, well a": 1.15e5, "induced reporter light, run 1, well b": 1.20e5, "control promoter light, run 1, well a": 87900, "control promoter light, run 1, well b": 35005, "uninduced reporter light, run 1, well a": 12620, "Outcome": "inactive"}
{"target": "CG3987", "PubChem SID": "SID104195323", "induced reporter light, run 1, well a": 1.44e5, "induced reporter light, run 1, well b": 1.40e5, "control promoter light, run 1, well a": 1.06e5, "control promoter light, run 1, well b": 97795, "uninduced reporter light, run 1, well a": 10192, "Outcome": "inactive"}
{"target": "caps", "PubChem SID": "SID104191125", "induced reporter light, run 1, well a": 1.52e5, "induced reporter light, run 1, well b": 1.34e5, "control promoter light, run 1, well a": 2.17e5, "control promoter light, run 1, well b": 1.70e5, "uninduced reporter light, run 1, well a": 6215, "Outcome": "inactive"}
{"target": "CG9967", "PubChem SID": "SID104180534", "induced reporter light, run 1, well a": 2.54e5, "induced reporter light, run 1, well b": 2.44e5, "control promoter light, run 1, well a": 2.19e5, "control promoter light, run 1, well b": 2.10e5, "uninduced reporter light, run 1, well a": 21340, "Outcome": "inactive"}
{"target": "CG14562", "PubChem SID": "SID104191515", "induced reporter light, run 1, well a": 35165, "induced reporter light, run 1, well b": 35280, "control promoter light, run 1, well a": 32095, "control promoter light, run 1, well b": 25790, "uninduced reporter light, run 1, well a": 2110, "Outcome": "inactive"}
{"target": "CG31809", "PubChem SID": "SID104181353", "induced reporter light, run 1, well a": 79855, "induced reporter light, run 1, well b": 60605, "control promoter light, run 1, well a": 69205, "control promoter light, run 1, well b": 72135, "uninduced reporter light, run 1, well a": 5150, "Outcome": "inactive"}
{"target": "Itgbn", "PubChem SID": "SID104183285", "induced reporter light, run 1, well a": 37705, "induced reporter light, run 1, well b": 35305, "control promoter light, run 1, well a": 59535, "control promoter light, run 1, well b": 44270, "uninduced reporter light, run 1, well a": 3265, "Outcome": "inactive"}
{"target": "vn", "PubChem SID": "SID104191200", "induced reporter light, run 1, well a": 91885, "induced reporter light, run 1, well b": 63120, "control promoter light, run 1, well a": 54780, "control promoter light, run 1, well b": 47735, "uninduced reporter light, run 1, well a": 10630, "Outcome": "inactive"}
{"target": "ens", "PubChem SID": "SID104188246", "induced reporter light, run 1, well a": 1.26e5, "induced reporter light, run 1, well b": 1.83e5, "control promoter light, run 1, well a": 94715, "control promoter light, run 1, well b": 25390, "uninduced reporter light, run 1, well a": 11480, "Outcome": "inactive"}
{"target": "Spn77Ba", "PubChem SID": "SID104190485", "induced reporter light, run 1, well a": 1.27e5, "induced reporter light, run 1, well b": 1.40e5, "control promoter light, run 1, well a": 63825, "control promoter light, run 1, well b": 74015, "uninduced reporter light, run 1, well a": 10160, "Outcome": "inactive"}
{"target": "CG12278", "PubChem SID": "SID104194286", "induced reporter light, run 1, well a": 1.50e5, "induced reporter light, run 1, well b": 1.52e5, "control promoter light, run 1, well a": 1.44e5, "control promoter light, run 1, well b": 1.44e5, "uninduced reporter light, run 1, well a": 11680, "Outcome": "inactive"}

2 of these entries in another layout.
| target | PubChem SID | induced reporter light, run 1, well a | induced reporter light, run 1, well b | control promoter light, run 1, well a | control promoter light, run 1, well b | uninduced reporter light, run 1, well a | Outcome |
| --- | --- | --- | --- | --- | --- | --- | --- |
| CG14562 | SID104191515 | 35165 | 35280 | 32095 | 25790 | 2110 | inactive |
| CG31809 | SID104181353 | 79855 | 60605 | 69205 | 72135 | 5150 | inactive |
